Results taken from the supplement of paper PMC10849652.
The list shows a part of the results.

Chains of the proteins cited; added tags and fusions are not shown. Lines headed by an entry give the natural chain unless they say otherwise; changes in a name come on top.
UniProt O75935, whole entry, looked up: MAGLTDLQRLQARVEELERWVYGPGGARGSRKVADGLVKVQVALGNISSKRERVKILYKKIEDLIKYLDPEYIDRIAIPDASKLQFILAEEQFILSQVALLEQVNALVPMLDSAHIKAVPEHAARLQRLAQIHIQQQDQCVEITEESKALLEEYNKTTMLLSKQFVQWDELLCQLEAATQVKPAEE
UniProt Q96C57: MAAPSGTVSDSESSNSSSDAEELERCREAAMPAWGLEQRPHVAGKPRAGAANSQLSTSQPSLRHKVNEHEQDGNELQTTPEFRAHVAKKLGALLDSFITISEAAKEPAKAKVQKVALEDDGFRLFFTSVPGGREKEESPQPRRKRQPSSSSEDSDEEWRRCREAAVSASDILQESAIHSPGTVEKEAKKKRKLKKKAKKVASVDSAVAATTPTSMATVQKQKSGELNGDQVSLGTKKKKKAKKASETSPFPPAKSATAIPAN
UniProt P98082: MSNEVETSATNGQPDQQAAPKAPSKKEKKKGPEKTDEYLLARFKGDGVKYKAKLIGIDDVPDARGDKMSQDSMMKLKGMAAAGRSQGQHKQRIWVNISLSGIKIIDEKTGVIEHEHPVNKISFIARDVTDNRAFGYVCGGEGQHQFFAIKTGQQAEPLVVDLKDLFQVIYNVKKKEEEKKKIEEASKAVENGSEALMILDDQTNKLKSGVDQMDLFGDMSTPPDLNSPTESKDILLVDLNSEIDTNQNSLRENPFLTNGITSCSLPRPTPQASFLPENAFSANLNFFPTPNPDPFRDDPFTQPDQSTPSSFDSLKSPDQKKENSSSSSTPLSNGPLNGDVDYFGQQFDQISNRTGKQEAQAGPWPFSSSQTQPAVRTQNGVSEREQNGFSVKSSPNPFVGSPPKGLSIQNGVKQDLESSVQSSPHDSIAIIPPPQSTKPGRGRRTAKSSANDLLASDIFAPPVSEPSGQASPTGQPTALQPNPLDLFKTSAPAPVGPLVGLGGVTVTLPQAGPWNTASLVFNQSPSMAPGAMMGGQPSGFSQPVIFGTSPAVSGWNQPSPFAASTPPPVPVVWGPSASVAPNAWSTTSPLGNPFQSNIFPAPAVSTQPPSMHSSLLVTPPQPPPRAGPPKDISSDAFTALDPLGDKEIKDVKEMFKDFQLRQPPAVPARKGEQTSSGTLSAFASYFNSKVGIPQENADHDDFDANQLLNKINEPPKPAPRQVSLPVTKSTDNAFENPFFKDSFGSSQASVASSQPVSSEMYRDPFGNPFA
UniProt Q8TEB1, whole entry, looked up: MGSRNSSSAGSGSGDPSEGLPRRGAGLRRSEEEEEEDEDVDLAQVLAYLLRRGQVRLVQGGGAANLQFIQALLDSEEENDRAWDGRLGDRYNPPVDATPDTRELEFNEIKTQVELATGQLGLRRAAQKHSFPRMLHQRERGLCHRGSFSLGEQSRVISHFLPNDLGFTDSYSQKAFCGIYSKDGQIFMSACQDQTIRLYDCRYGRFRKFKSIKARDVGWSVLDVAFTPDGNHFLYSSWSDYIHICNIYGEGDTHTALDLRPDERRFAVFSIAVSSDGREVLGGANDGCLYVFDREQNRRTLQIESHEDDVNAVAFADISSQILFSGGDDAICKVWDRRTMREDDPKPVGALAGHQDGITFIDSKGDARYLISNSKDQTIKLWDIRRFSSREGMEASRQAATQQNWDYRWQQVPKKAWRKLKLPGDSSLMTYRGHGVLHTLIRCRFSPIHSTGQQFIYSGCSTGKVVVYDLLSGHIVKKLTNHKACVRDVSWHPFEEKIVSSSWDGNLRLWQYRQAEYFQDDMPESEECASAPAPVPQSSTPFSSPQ
UniProt P27707: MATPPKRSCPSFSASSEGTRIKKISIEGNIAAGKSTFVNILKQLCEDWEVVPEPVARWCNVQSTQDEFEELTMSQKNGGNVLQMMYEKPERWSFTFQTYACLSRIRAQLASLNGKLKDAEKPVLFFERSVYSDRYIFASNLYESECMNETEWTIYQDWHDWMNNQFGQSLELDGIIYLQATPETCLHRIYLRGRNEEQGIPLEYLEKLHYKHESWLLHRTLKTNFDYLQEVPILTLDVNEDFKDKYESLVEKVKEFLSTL
UniProt P10619: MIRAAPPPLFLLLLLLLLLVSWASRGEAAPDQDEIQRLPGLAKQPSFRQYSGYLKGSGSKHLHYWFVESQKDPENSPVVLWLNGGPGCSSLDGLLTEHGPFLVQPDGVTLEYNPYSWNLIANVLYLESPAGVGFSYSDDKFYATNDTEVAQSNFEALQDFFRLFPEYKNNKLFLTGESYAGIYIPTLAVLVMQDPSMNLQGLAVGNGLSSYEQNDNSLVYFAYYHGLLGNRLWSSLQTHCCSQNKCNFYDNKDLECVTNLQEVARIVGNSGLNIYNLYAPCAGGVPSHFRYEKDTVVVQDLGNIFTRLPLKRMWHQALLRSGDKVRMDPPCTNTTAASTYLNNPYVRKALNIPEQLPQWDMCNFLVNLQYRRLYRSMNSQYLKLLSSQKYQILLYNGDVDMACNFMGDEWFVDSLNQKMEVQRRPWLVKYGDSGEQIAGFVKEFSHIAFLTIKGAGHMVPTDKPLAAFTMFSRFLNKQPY
UniProt Q96GG9: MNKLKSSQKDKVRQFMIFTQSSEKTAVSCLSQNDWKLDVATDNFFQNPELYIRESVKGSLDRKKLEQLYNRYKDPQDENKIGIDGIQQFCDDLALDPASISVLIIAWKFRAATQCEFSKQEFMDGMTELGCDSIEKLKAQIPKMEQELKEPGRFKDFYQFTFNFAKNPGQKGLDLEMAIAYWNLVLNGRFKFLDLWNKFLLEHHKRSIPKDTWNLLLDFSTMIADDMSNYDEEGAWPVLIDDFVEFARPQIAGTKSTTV
UniProt Q8TB03: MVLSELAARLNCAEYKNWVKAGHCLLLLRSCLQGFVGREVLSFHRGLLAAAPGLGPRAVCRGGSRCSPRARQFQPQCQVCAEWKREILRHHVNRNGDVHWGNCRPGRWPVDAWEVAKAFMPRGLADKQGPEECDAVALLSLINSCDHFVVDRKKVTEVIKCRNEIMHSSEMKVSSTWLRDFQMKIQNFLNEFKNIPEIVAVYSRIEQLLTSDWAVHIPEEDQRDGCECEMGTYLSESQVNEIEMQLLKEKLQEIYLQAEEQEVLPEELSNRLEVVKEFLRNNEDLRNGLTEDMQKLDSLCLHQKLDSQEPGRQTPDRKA
UniProt Q13618, whole entry, looked up: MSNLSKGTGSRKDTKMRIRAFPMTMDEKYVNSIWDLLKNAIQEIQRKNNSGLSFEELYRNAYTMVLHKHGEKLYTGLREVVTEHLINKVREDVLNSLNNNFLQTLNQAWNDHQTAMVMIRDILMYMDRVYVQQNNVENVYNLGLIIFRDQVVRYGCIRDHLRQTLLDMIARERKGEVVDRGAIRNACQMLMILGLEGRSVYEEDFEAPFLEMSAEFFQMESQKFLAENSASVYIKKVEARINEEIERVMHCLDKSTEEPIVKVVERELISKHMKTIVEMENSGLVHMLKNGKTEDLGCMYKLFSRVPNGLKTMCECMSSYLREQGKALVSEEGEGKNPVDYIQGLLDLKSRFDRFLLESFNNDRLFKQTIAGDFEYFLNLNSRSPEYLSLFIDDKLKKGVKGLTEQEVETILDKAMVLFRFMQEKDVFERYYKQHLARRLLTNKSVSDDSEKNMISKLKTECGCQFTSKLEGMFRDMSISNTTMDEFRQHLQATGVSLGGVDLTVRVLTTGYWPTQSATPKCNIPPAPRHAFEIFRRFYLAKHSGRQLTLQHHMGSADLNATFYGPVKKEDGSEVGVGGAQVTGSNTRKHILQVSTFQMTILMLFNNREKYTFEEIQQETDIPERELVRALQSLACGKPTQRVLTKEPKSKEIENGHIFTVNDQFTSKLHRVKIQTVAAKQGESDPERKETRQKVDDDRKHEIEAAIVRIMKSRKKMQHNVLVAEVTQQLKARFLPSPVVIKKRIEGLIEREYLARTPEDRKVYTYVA
UniProt P35221: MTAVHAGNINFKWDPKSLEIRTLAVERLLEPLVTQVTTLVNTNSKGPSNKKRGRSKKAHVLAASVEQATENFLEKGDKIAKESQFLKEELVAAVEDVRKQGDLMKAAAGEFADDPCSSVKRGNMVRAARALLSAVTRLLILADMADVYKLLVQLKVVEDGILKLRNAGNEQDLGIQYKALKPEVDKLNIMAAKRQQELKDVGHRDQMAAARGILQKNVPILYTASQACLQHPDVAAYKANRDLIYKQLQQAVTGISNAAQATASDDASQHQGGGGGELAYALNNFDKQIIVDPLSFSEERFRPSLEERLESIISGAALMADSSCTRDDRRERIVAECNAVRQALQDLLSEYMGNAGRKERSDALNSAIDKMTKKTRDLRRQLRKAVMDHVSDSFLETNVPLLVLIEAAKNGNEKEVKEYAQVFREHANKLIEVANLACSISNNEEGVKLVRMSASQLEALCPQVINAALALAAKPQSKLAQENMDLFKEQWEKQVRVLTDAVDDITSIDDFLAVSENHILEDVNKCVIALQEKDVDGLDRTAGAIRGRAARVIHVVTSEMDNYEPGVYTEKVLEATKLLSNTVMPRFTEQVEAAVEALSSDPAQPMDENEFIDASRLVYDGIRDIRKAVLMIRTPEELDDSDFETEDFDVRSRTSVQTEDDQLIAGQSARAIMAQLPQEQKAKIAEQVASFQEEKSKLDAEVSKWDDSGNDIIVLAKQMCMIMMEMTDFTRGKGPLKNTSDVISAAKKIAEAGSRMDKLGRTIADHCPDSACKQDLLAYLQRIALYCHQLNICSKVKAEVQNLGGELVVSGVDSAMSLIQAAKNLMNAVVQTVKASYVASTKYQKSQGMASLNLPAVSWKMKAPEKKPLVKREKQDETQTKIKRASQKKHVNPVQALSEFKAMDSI
UniProt Q96C86: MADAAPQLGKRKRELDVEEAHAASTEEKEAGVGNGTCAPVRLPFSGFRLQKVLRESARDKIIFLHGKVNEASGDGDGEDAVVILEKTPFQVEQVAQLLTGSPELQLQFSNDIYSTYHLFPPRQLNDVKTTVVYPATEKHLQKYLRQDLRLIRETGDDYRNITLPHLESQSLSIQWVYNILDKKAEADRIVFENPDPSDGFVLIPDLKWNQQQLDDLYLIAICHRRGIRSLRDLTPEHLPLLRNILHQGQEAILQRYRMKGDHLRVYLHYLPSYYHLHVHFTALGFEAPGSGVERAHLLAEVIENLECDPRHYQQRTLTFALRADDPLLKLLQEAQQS
UniProt Q5JQC4: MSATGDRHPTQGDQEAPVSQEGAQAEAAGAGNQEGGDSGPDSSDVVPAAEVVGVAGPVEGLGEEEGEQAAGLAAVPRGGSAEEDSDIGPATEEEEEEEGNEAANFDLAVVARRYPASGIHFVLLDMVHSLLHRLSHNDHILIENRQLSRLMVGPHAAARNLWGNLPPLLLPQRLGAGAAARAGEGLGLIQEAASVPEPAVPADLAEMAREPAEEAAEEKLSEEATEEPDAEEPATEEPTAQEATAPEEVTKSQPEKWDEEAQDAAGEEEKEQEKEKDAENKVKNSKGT
UniProt Q13617, whole entry, looked up: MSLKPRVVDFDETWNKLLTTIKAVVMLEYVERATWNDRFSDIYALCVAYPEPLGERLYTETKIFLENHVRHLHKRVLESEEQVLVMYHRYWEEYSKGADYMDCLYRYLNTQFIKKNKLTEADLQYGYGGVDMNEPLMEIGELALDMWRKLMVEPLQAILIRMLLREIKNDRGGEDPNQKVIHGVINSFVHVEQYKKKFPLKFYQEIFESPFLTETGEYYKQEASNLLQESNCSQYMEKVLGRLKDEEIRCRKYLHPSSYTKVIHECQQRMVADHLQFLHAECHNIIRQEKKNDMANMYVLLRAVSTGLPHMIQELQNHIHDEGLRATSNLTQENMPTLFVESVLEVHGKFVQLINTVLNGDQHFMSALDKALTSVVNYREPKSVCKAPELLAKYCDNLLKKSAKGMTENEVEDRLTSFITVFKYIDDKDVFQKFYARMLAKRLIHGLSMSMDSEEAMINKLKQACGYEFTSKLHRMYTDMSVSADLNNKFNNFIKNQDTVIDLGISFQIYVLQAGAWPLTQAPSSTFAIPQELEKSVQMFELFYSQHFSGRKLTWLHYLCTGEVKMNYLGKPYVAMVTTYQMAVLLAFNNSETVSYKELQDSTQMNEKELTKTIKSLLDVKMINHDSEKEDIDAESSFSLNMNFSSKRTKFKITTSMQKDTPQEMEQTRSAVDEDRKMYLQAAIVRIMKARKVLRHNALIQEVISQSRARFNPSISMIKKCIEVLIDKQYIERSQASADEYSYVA
UniProt O60888: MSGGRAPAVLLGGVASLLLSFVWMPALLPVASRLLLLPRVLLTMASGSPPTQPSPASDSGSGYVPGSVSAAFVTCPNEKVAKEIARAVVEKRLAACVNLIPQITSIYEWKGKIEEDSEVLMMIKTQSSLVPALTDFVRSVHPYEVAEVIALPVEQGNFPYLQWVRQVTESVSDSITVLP

Key:
Experiment in all cases: log2 fold change, soluble protein after heating vs DMSO (PISA); higher = thermal stabilisation; K562 cells, 10 uM, 30 min; active = over 0.2 and 3.5 SD of the protein, either way, in both replicates (recomputed)
[1] = compound: Cc1ccc(NC(=O)c2ccc(CN3CC[C@H](N(C)C)C3)c(C(F)(F)F)c2)cc1Nc1nccc(-c2cncnc2)n1 [bafetinib]
How it was run: (§1)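 K562 cells at 2×10^6 cells/mL were treated with 10 μM compound for 30 min. Aliquots were heated for 3 min across 48°C-58°C, pooled, and extracted in PBS with 0.5% NP-40 at 4°C; soluble protein was the supernatant after 21,000xg for 90 min. Soluble protein was quantified by TMTpro 16plex LC-MS/MS with channel sums equalised, and reported as log2 fold change in thermal stability against DMSO controls, with values from duplicates.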

[2] = compound: Cc1cccc(CC(=O)N2CCc3c2ccc(-c2cn(C)c4ncnc(N)c24)c3F)n1
How it was run: as §1

[3] = compound: Cc1cn(-c2cc(NC(=O)c3ccc(C)c(Nc4nccc(-c5cccnc5)n4)c3)cc(C(F)(F)F)c2)cn1 [nilotinib]
How it was run: as §1

[4] = compound: Cc1nc(Nc2n[nH]c3c2CN(C(=O)N[C@H](CN(C)C)c2ccccc2)C3(C)C)c2sccc2n1
How it was run: as §1

[5] = compound: Cc1nc(Nc2ncc(C(=O)Nc3c(C)cccc3Cl)s2)cc(N2CCN(CCO)CC2)n1 [dasatinib]
How it was run: as §1

[6] = compound: Cc1ncc(-c2ccnc(Nc3ccc(S(C)(=O)=O)cc3)n2)n1C(C)C
How it was run: as §1

[7] = compound: Cn1cc(-c2ccc3c(c2)CCN3C(=O)Cc2cccc(C(F)(F)F)c2)c2c(N)ncnc21
How it was run: as §1

[8] = compound: Cn1cc(-c2ccc3nnc(C(F)(F)c4ccc5ncccc5c4)n3n2)cn1
How it was run: as §1

[9] = compound: Cn1cncc1[C@@](N)(c1ccc(Cl)cc1)c1ccc2c(c1)c(-c1cccc(Cl)c1)cc(=O)n2C [tipifarnib]
How it was run: as §1

[10] = compound: FC(F)(F)c1ccc(/C=C/c2nc(COc3ccc(CCCCn4ccnn4)cc3)co2)cc1 [mubritinib]
How it was run: as §1

| Target | log2 fold change [1] | log2 fold change [2] | log2 fold change [3] | log2 fold change [4] | log2 fold change [5] | log2 fold change [6] | log2 fold change [7] | log2 fold change [8] | log2 fold change [9] | log2 fold change [10] |
| --- | --- | --- | --- | --- | --- | --- | --- | --- | --- | --- |
| CYB5B, A0A499FJ32 | inactive: 0.07 | inactive: 0.025 | inactive: -0.111 | inactive: 0.112 | inactive: 0.089 | inactive: -0.06 | inactive: 0.03 | inactive: 0.032 | inactive: -0.284 | inactive: -0.019 |
| CTSB (UniProt P07858) | active: -0.842 | inactive: -0.038 | inactive: 0.001 | inactive: -0.028 | inactive: -0.008 | inactive: -0.029 | inactive: 0.014 | inactive: 0.033 | inactive: 0.008 | inactive: -0.007 |
| CSTF2 (UniProt P33240) | inactive: -0.05 | inactive: -0.061 | inactive: -0.029 | inactive: 0.074 | inactive: 0.007 | inactive: 0.047 | inactive: -0.011 | inactive: -0.014 | inactive: 0.028 | inactive: -0.046 |
| CXorf56 (UniProt Q9H5V9) | inactive: 0.046 | inactive: 0.011 | inactive: -0.018 | inactive: -0.073 | inactive: -0.048 | inactive: 0.039 | inactive: -0.039 | inactive: -0.102 | inactive: 0.052 | inactive: 0.055 |
| DCTN3 (UniProt O75935) | inactive: 0.004 | inactive: 0.013 | inactive: -0.018 | inactive: 0.016 | inactive: -0.102 | inactive: 0.025 | inactive: 0.002 | inactive: 0.04 | inactive: 0.015 | inactive: 0.019 |
| CSPP1 (UniProt Q1MSJ5) | inactive: -0.205 | inactive: -0.055 | inactive: 0.002 | inactive: 0.016 | inactive: 0.025 | inactive: -0.046 | inactive: -0.032 | inactive: -0.017 | inactive: 0.006 | inactive: 0.016 |
| CT45A10 (UniProt P0DMU9) | inactive: 0.117 | inactive: -0.026 | inactive: -0.013 | inactive: 0.035 | inactive: -0.045 | inactive: -0.043 | inactive: -0.079 | inactive: -0.123 | inactive: 0.172 | inactive: -0.07 |
| CUSTOS (UniProt Q96C57) | inactive: -0.057 | inactive: -0.062 | inactive: 0.026 | inactive: -0.009 | inactive: 0.027 | inactive: 0.001 | inactive: 0.039 | inactive: 0.004 | inactive: 0.028 | inactive: 0.015 |
| DAB2 (UniProt P98082) | inactive: -0.041 | inactive: 0.085 | inactive: -0.152 | inactive: 0.002 | inactive: -0.178 | inactive: -0.098 | inactive: 0.01 | inactive: -0.007 | inactive: -0.042 | inactive: -0.024 |
| DCP1A (UniProt Q9NPI6) | inactive: -0.014 | inactive: 0.011 | inactive: -0.139 | inactive: 0.016 | inactive: 0.014 | inactive: -0.19 | inactive: -0.214 | inactive: -0.007 | inactive: -0.088 | inactive: -0.019 |
| CYB5R4 (UniProt Q7L1T6) | inactive: -0.044 | inactive: -0.065 | inactive: 0.001 | inactive: -0.019 | inactive: -0.045 | inactive: 0.022 | inactive: 0.033 | inactive: 0.03 | inactive: -0.017 | inactive: 0.035 |
| DCAF11 (UniProt Q8TEB1) | inactive: -0.018 | inactive: -0.017 | inactive: 0.011 | inactive: 0.036 | inactive: -0.002 | inactive: 0.027 | inactive: 0.021 | inactive: 0.085 | inactive: 0.013 | inactive: 0.053 |
| CTSZ (UniProt Q9UBR2) | active: -1.01 | inactive: -0.027 | inactive: 0.028 | inactive: -0.146 | inactive: 0.054 | inactive: -0.022 | inactive: 0.058 | inactive: 0.022 | inactive: 0.052 | inactive: 0.033 |
| DCK (UniProt P27707) | inactive: -0.108 | inactive: -0.013 | inactive: -0.039 | inactive: 0.175 | inactive: 0.014 | inactive: 0.021 | inactive: 0.026 | inactive: 0.006 | inactive: -0.04 | inactive: 0.036 |
| DAG1 (UniProt Q14118) | inactive: 0.03 | inactive: -0.076 | inactive: 0.085 | inactive: 0.003 | inactive: 0.025 | inactive: -0.008 | inactive: -0.001 | inactive: 0.073 | inactive: 0.035 | inactive: 0.05 |
| CTSA (UniProt P10619) | active: -0.595 | inactive: -0.04 | inactive: 0.052 | inactive: 0.015 | inactive: 0.112 | inactive: -0.001 | inactive: 0.019 | inactive: 0.005 | inactive: 0.16 | inactive: 0.007 |
| CTCF (UniProt P49711) | inactive: 0.195 | inactive: -0.055 | inactive: 0.166 | inactive: -0.144 | inactive: 0.171 | inactive: 0.002 | inactive: -0.467 | inactive: -0.163 | inactive: 0.17 | inactive: -0.091 |
| CYB561A3 isoform 2 (UniProt Q8NBI2) | inactive: 0.03 | inactive: -0.223 | inactive: 0.012 | inactive: 0.065 | inactive: 0.034 | inactive: -0.029 | inactive: 0.004 | inactive: -0.044 | inactive: -0.087 | inactive: -0.015 |
| DCUN1D1 (UniProt Q96GG9) | inactive: -0.083 | inactive: 0.026 | inactive: -0.025 | inactive: -0.018 | inactive: -0.047 | inactive: 0 | inactive: 0.008 | inactive: 0.03 | inactive: -0.059 | inactive: 0.015 |
| CXorf38 (UniProt Q8TB03) | inactive: -0.044 | inactive: -0.014 | inactive: -0.041 | inactive: -0.041 | inactive: 0.011 | inactive: -0.075 | inactive: 0.075 | inactive: 0.053 | inactive: 0.063 | inactive: 0.043 |
| CUL3 (UniProt Q13618) | inactive: -0.026 | inactive: 0.03 | inactive: -0.011 | inactive: -0.018 | inactive: -0.01 | inactive: -0.013 | inactive: 0.039 | inactive: 0.018 | inactive: 0.001 | inactive: 0.045 |
| CTNNA1 isoform 2 (UniProt P35221) | inactive: -0.038 | inactive: -0.021 | inactive: -0.061 | inactive: -0.01 | inactive: -0.026 | inactive: -0.024 | inactive: 0.046 | inactive: -0.042 | inactive: 0.019 | inactive: 0.022 |
| CWC15 (UniProt Q9P013) | inactive: -0.067 | inactive: -0.125 | inactive: 0.009 | inactive: 0.072 | inactive: 0.044 | inactive: 0.012 | inactive: -0.032 | inactive: 0.047 | inactive: 0.041 | inactive: 0.019 |
| DCPS (UniProt Q96C86) | inactive: -0.069 | inactive: -0.002 | inactive: 0.005 | inactive: -0.016 | inactive: 0.002 | inactive: 0.015 | inactive: -0.01 | inactive: 0.036 | inactive: 0.006 | inactive: 0.031 |
| CT47A1 (UniProt Q5JQC4) | inactive: -0.153 | inactive: 0.061 | inactive: -0.01 | inactive: -0.054 | inactive: 0.011 | inactive: 0.036 | inactive: -0.048 | inactive: -0.033 | inactive: -0.071 | inactive: -0.102 |
| CTBP1 (UniProt Q13363) | inactive: -0.019 | inactive: 0.004 | inactive: -0.005 | inactive: 0.002 | inactive: 0.002 | inactive: -0.031 | inactive: 0.004 | inactive: 0.057 | inactive: -0.036 | inactive: 0.044 |
| CUL2 isoform 2 (UniProt Q13617) | inactive: -0.035 | inactive: 0.042 | inactive: -0.034 | inactive: -0.003 | inactive: -0.084 | inactive: -0.003 | inactive: 0.053 | inactive: -0.009 | inactive: -0.069 | inactive: 0.006 |
| DCTN4 (UniProt Q9UJW0) | inactive: -0.053 | inactive: 0 | inactive: -0.026 | inactive: 0 | inactive: -0.02 | inactive: -0.007 | inactive: -0.006 | inactive: -0.03 | inactive: 0.02 | inactive: 0.037 |
| CYB5R2 (UniProt Q6BCY4) | inactive: -0.041 | inactive: -0.041 | inactive: -0.013 | inactive: 0.017 | inactive: 0.045 | inactive: -0.024 | inactive: -0.01 | inactive: 0.018 | inactive: 0.047 | inactive: 0.053 |
| CUTA isoform 2 (UniProt O60888) | inactive: -0.148 | inactive: 0.1 | inactive: 0.016 | inactive: 0.016 | inactive: 0 | inactive: -0.01 | inactive: 0.07 | inactive: 0.09 | inactive: 0.123 | inactive: 0.028 |

Pulled one by one from the entries so far, 2 records:

| Target | log2 fold change [1] | log2 fold change [2] | log2 fold change [3] | log2 fold change [4] | log2 fold change [5] | log2 fold change [6] | log2 fold change [7] | log2 fold change [8] | log2 fold change [9] | log2 fold change [10] |
| --- | --- | --- | --- | --- | --- | --- | --- | --- | --- | --- |
| CWC15 (UniProt Q9P013) | inactive: -0.067 | inactive: -0.125 | inactive: 0.009 | inactive: 0.072 | inactive: 0.044 | inactive: 0.012 | inactive: -0.032 | inactive: 0.047 | inactive: 0.041 | inactive: 0.019 |
| DCTN4 (UniProt Q9UJW0) | inactive: -0.053 | inactive: 0 | inactive: -0.026 | inactive: 0 | inactive: -0.02 | inactive: -0.007 | inactive: -0.006 | inactive: -0.03 | inactive: 0.02 | inactive: 0.037 |
